Measurements from PMC3954888.
No constants are given. Whether binding was seen depends on the method and setting. For part of these data: In cells and extracts the contact can be indirect. Some entries that bind do so weakly or less than the wild type.

The chains behind the UniProt entries cited, without tags or fusion partners. Where a name states a change or a piece, a line headed by the entry shows the natural chain unless it says otherwise. A line that says so, or that is headed by a name, gives the form on record, which may keep a tag or linker. Residues count along the entry.
UniProt Q13489: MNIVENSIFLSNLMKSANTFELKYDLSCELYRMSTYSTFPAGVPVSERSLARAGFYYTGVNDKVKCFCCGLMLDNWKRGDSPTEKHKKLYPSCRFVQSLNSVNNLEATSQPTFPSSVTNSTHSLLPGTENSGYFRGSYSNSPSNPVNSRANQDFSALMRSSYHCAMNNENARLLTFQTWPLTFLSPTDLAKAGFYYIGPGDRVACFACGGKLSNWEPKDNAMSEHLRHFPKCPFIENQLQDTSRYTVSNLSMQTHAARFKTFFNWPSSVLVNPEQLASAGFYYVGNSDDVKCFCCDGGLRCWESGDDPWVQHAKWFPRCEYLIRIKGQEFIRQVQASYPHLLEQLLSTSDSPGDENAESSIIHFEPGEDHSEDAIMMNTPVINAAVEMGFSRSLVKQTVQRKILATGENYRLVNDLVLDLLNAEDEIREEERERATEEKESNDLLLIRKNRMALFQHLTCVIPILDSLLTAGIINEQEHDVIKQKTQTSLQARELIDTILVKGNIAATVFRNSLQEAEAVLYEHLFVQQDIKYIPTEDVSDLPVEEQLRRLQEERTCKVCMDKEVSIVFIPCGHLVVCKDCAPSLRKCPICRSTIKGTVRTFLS
UniProt Q13490: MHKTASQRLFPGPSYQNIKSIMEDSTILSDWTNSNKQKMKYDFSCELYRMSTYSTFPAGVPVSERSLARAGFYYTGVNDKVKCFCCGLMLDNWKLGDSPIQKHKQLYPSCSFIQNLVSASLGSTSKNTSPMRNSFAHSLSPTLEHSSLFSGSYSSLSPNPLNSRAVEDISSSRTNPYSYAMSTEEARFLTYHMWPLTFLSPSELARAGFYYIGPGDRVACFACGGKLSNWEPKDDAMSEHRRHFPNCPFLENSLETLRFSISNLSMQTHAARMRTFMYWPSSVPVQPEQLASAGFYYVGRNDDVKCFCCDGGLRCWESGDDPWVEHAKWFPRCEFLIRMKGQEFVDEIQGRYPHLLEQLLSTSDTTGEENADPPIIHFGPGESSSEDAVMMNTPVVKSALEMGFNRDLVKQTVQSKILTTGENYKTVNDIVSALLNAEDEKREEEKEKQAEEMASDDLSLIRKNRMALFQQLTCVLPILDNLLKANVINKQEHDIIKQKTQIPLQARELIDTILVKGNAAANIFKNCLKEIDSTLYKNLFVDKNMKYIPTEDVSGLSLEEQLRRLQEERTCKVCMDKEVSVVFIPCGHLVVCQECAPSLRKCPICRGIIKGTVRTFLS
HA-tagged cIAP-1 RING mutant (His588 mutated to Ala) (Q13490, form named): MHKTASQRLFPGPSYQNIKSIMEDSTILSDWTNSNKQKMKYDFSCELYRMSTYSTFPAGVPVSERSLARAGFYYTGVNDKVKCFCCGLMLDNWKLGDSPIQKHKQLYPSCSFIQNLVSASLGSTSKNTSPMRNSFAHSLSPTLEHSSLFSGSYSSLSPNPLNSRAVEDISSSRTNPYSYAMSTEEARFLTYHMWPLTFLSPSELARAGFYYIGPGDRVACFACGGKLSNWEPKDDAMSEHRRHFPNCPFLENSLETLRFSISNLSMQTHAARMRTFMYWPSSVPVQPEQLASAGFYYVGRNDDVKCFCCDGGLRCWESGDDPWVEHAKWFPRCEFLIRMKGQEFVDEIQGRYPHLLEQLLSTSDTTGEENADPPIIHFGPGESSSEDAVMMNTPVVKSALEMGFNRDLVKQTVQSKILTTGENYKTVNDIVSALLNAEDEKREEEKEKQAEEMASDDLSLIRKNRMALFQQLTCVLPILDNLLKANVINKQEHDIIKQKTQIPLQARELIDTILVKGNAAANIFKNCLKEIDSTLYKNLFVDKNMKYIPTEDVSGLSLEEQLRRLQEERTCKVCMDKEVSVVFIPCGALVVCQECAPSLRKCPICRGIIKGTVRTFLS
UniProt Q86VP3: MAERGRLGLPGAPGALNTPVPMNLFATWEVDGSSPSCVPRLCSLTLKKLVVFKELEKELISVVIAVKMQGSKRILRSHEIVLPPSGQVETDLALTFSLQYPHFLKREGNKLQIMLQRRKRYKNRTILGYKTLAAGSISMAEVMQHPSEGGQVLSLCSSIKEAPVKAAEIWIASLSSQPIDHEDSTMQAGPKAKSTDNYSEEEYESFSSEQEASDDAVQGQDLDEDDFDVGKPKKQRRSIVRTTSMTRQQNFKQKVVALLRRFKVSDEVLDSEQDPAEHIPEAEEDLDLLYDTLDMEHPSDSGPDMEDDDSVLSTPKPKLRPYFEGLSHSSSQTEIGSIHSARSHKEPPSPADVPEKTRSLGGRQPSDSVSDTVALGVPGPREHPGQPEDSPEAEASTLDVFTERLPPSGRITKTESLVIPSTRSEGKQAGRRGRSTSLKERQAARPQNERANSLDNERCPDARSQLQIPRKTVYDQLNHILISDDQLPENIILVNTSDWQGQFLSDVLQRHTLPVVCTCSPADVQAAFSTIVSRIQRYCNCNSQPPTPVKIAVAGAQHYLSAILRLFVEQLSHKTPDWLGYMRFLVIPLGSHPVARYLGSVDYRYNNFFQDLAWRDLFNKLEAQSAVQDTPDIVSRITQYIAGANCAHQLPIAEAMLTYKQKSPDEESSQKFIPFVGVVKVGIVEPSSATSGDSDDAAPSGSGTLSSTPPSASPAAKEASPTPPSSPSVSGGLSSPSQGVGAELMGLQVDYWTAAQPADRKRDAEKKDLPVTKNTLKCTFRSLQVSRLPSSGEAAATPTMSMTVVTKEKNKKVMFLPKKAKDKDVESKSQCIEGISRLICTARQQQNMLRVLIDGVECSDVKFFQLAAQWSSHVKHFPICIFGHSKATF
GST-PACS-2FBR(38-202): residues 38-202 of Q86VP3

What was measured:
[1] = molecular target: endogenous cIAP-2 (human (endogenous in HuH-7)) (UniProt Q13489); assay: co-IP; HuH-7 cells transfected with S-peptide/SBP-PACS-2, MG132 (5 µM) 4 h; 1.5 mg lysate with 5 µg anti-cIAP-2 antisera 2 h at 4°C, then protein A agarose overnight; immunoblot for S-peptide
[2] = molecular target: HA-tagged cIAP-1 RING mutant (His588 mutated to Ala) (UniProt Q13490); assay: co-IP; HuH-7 cells co-transfected with S-peptide/SBP-PACS-2 and HA-cIAP-1H588A, MG132 (5 µM) 4 h; lysate (50 mM HEPES pH 7.2, 120 mM NaCl, 1 mM EDTA, 0.1% NP-40, 10% glycerol) on anti-HA affinity gel overnight at 4°C; immunoblot for S-peptide
GST-PACS-2FBR(38-202) = GST-PACS-2FBR(38-202) (UniProt Q86VP3); assay: pull-down; ~200 ng GST-PACS-2FBR(38-202) or GST with 500 ng cIAP-1 and/or cIAP-2, with or without 500 ng His-TRAF2, 30 min at 4°C in 20 µl of 20 mM Tris pH 7.9, 150 mM NaCl, 0.1 mM EDTA, 0.1% NP-40; GST-agarose beads; immunoblot; both purified

Row | binding [1] | binding [2] | binding (GST-PACS-2FBR(38-202)) | Substance
1 | binds | binds | – | S-peptide/streptavidin-binding peptide-double tagged PACS-2 (phosphofurin acidic cluster sorting protein 2) (from UniProt Q86VP3-1 1-889)
2 | – | – | binds | recombinant cIAP-2 (from UniProt Q13489 1-604) (enzyme)
